# Results deposited as PubChem BioAssay AID1259307 (Sanger Institute, 2017).
# Purpose: 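Screen of kinase gene silencing for colorectal cancer cell killing and drug cooperation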 (primary screen)
# Cell system: SW620 colorectal cancer cells
# Reagent: siRNA pool against human genes
# Conditions: anchor drugs BYL719 at 1 µM, cetuximab at 5 µg/ml or trametinib at 10 nM, each beside a DMSO vehicle arm
# Read-out: 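Per-well viability versus non-targeting control pool, replicate-averaged, robust z-score from controls; synergy scores for BYL719 1 µM, cetuximab 5 µg/ml, trametinib 10 nM against DMSO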
# Reading the numbers: viability robust z-score, no drug: higher = more viable cells
# Hit rule: 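a knock-down counts as lethal alone if its drug-free robust viability z-score is lower than -3, regardless of synergy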
# Meaning of the calls: active = essential (lethal alone); inactive = no change alone
# This is one part, drawn at random, of 794 reagents tested. 15 of them (1.9%) count as active. 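Calls reflect lethality without any drug; synergy scores did not enter the calls.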 Not all columns of the deposit are shown. Reagent sequences are not shown. Not stated in the record: the amount of reagent, the time to read-out.
target gene,"viability robust z-score, no drug",outcome
DGKD,0.736,inactive
PDIK1L,0.736,inactive
STK26,0.694,inactive
PRKAB2,0.242,inactive
LIMK1,0.736,inactive
PKMYT1,-0.259,inactive
PIK3R1,0.548,inactive
STK33,-0.108,inactive
EFNA3,0.736,inactive
PDGFRA,0.438,inactive
FLT3,0.0278,inactive
SMG1,0.0525,inactive
IKBKB,-0.649,inactive
CAMK2G,0.736,inactive
IDH2,-0.0272,inactive
WIPF1,-1.23,inactive
PIK3C2B,0.646,inactive
CAMK4,-0.65,inactive
DGKB,-0.116,inactive
POLR2B,-4.67,active
MAPKAPK2,0.736,inactive
AK5,-0.816,inactive
DCK,-5.24,active
CSNK1G3,0.736,inactive
MAP3K21,0.736,inactive
SRC,0.265,inactive
PTPRU,0.567,inactive
TLK2,0.298,inactive
CHD9,0.736,inactive
CASK,0.581,inactive
MAP3K20,-0.153,inactive
OXSR1,0.736,inactive
FER,0.736,inactive
KHK,0.178,inactive
MYLK3,0.583,inactive
TESK1,0.736,inactive
AAK1,-0.984,inactive
CDC42BPA,0.736,inactive
CDKN2C,0.736,inactive
NUAK1,0.736,inactive
UCK1,0.736,inactive
PCBP1,0.681,inactive
ADCK2,0.736,inactive
PRKAA2,-0.149,inactive
PIK3R3,0.252,inactive
FN1,0.421,inactive
HIPK3,-0.25,inactive
PNCK,0.309,inactive
PDK2,0.735,inactive
PTK7,-0.646,inactive
CLK2,0.596,inactive
ACVR2B,-1.07,inactive
AK2,0.736,inactive
GCK,-0.265,inactive
MPP2,0.304,inactive
MAP3K12,-0.248,inactive
WT1,0.536,inactive
MAK,-0.911,inactive
TSSK2,0.507,inactive
PKN2,0.51,inactive
RAF1,-1.16,inactive
PIP5KL1,0.422,inactive
SCYL3,-0.668,inactive

Entries above whose target name starts with D or d:
target gene,"viability robust z-score, no drug",outcome
DGKD,0.736,inactive
DGKB,-0.116,inactive
DCK,-5.24,active
